Measurements reported in paper doi:10.1101/2022.01.24.477037.
No constants are given. Whether binding was seen depends on the method and setting. In cells and extracts the contact can be indirect. Some binding calls cover weakened binding; strength is not graded here.

Sequences of proteins named here, by UniProt entry; tags and fusion partners are left off.
UniProt Q9Y2T1: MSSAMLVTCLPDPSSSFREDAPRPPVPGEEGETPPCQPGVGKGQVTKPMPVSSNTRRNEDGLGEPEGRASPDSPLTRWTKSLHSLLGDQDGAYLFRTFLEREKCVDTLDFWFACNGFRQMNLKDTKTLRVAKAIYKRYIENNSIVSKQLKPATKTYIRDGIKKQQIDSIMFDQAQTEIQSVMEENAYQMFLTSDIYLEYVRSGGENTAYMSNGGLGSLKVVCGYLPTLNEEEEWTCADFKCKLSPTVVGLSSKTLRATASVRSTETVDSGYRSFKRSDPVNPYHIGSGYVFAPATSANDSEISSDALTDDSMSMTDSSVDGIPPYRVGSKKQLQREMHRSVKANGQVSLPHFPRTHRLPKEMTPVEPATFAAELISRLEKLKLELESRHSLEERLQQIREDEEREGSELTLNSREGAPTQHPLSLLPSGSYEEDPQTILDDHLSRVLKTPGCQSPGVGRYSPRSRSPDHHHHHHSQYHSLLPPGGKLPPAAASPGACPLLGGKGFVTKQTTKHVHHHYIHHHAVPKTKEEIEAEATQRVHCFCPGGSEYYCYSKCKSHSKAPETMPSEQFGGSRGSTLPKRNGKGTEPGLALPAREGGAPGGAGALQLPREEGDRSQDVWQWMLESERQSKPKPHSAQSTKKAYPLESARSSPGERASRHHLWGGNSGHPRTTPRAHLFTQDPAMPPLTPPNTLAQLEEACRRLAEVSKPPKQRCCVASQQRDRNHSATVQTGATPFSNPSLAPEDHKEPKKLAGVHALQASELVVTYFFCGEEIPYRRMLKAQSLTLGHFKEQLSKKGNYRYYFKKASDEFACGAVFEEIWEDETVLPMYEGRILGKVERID
UniProt P49841: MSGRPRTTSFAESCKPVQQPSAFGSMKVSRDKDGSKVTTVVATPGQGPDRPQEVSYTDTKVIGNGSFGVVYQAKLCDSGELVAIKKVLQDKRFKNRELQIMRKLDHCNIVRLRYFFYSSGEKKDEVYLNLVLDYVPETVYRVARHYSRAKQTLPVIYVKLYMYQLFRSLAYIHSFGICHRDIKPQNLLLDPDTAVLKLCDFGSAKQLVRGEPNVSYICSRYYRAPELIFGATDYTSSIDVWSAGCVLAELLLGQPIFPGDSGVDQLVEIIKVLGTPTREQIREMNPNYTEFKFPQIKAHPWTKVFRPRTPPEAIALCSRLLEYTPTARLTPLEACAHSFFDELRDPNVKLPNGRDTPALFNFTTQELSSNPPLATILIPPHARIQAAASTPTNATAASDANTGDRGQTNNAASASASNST
UniProt P15130: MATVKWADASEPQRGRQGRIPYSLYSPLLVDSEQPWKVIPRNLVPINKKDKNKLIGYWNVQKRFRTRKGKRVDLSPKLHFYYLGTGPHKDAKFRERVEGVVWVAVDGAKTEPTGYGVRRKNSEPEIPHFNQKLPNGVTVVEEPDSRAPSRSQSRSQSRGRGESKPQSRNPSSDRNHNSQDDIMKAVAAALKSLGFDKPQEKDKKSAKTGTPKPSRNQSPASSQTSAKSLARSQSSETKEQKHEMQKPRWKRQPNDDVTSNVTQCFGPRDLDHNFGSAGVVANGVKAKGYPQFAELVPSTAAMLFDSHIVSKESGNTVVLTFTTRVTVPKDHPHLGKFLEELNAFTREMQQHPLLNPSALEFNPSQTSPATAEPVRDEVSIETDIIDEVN
UniProt Q0ZME3: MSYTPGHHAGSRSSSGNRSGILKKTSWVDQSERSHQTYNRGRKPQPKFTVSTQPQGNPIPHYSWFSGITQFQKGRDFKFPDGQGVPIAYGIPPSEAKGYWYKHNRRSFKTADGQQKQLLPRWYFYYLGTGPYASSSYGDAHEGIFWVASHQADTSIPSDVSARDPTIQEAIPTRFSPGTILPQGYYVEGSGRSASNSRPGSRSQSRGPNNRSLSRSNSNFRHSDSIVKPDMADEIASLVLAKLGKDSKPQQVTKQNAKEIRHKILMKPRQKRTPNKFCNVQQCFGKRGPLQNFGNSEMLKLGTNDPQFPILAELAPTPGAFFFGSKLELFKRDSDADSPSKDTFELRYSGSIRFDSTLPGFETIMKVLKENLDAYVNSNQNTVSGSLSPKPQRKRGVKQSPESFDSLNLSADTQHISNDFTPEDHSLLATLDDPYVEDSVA
UniProt P33469: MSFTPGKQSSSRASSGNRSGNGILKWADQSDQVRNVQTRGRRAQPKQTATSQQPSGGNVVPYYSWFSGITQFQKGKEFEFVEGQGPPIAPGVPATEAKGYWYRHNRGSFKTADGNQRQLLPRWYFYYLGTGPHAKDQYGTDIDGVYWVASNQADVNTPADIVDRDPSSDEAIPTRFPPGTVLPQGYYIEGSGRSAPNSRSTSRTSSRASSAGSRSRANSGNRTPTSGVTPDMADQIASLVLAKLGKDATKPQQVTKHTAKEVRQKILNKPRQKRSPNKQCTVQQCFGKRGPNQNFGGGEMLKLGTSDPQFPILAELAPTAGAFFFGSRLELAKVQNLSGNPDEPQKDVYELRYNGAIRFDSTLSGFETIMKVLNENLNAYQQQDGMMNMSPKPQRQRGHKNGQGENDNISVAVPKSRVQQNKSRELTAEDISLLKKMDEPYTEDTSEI

Experiments:
Flag-tagged Axin2 = Flag-tagged Axin2 (UniProt Q9Y2T1); test: co-IP
[1] = target: HA-tagged GSK-3β, wild type (UniProt P49841); test: co-IP

| Substance | binding (Flag-tagged Axin2) | binding [1] |
| --- | --- | --- |
| HA-tagged GSK-3β, wild type (from UniProt P49841 1-420) (enzyme) | binds | – |
| N protein of human coronavirus 229E, Flag-tagged (from UniProt P15130 1-389) | – | binds |
| N protein of human coronavirus HKU1, Flag-tagged (from UniProt Q0ZME3 1-441) | – | no binding |
| N protein of human coronavirus OC43, Flag-tagged (from UniProt P33469 1-448) | – | no binding |
